Assay results published in article PMC8708760.
No constants are given. Whether binding was seen depends on the method and setting. In cells and extracts the contact can be indirect. Here binding means that the protein was enriched with, or labelled near, the bait; the list need not be complete.

Target: BmCDK1^Flag (Bombyx mori CDK1 overexpressed by recombinant BmNPV vBm-BmCDK1) (Bombyx mori)
Experiment: affinity purification with mass spectrometry; BmN-SWU1 cells infected with 1 MOI of vBm-BmCDK1, lysed 48 h p.i.; IP with α-Flag monoclonal antibody on protein A+G magnetic beads, 2-3 h at room temperature, washed with PBST; mouse IgG as negative control; SDS-PAGE, silver staining, bands of three experiments combined for LC-MS/MS

B1: BmNPV IAP1 (made by the virus in infected cells) (protein, UniProt O92394 1-292)
chain: MNEDTPPFYFINTRDNFRDNIAEHVFDMLLERHGSFENYPIVNTAFINSLIVNGFKYNQVDDHVVCEYCEAEIKNWSEDECIEYAHVTLSPYCAYANKIAEHESFGDNITINAVLVKEGRPKCVYRCMSNLQSRMDTFVNFWPAALRDMITNIAEAGLFYTGRGDETVCFFCDCCVRDWHINEDAWQRHATENPQCYFVLSVKGKEFCQNAITATHVDKRDDDDDDDNNLNENVDDDIEEKYECKVCLERQRDAVLMPCRHFCVCVQCYFGLDQKCPTCRQDVTDFIKIFVV
- binding: binds
